# Source: PubChem BioAssay AID595 (National Center for Advancing Translational Sciences (NCATS), 2007)
# About 310 (0.44%) of roughly 71,000 compounds were called active. The inconclusive results got no clear call from the source; some entries with a clear call stand among them for comparison. Calls follow the shape of the dose curve; as a rule, active = well fitted curve in either direction with a large enough effect; inconclusive = small, poorly fitted or top-dose-only effect, or another doubt; inactive = flat fitted curve, though single readings scatter. Potencies beside an inconclusive call are fits to weak or partial responses and may not hold up. More than one record can exist for a structure, and the calls need not agree.
# System: Hsp90 C-terminal peptide / TPR2A (Hop) interaction, human
# Experiment: qHTS Assay for Disrupters of an Hsp90 Co-Chaperone Interaction
# Conditions: AlphaScreen TPR2A-His6 binding biotin-Hsp90 C-terminal peptide; activity change, negative = inhibition: at 57 µM (top of the series) unless noted
# % is scaled to controls: 0 for no effect and ±100 for the full control effect; potency is read from the fitted curve at half-maximal effect.
SMILES,"activity change, negative = inhibition",Potency
COc1cc(C2c3c(oc4cc(C)c(C)cc4c3=O)C(=O)N2c2cc(C)ccn2)ccc1O (stereo not drawn),inconclusive: 48.6%,–
C=CCn1c(SCC(=O)N2CCN(C(=O)c3ccco3)CC2)nc2sc(CC)cc2c1=O,inactive: -12.2%,–
c1ccc(-c2cc(-c3nnc4sc(-c5ccccn5)nn34)[nH]n2)cc1,inconclusive: 22%,–
N#C/C(=C\c1ccc(O)c(O)c1)C(=O)NCCCc1ccccc1,–,active: 5.01 µM
CCn1c(=O)c(C(=O)NCc2ccccn2)c(O)c2ccccc21,inactive: -2.54%,–
COc1ccc2[nH]c(C(=O)O)c(NS(=O)(=O)c3ccc(OC)c(OC)c3)c2c1,inactive: -12.7%,–
COc1cc(NC(=O)CS(=O)(=O)c2ccc(C)cc2)cc(OC)c1OC,inconclusive: 33.9%,–
Cc1cc(Oc2ccccc2)nc(OCC#N)n1,inconclusive: 33.2%,–
C=C[C@@]1(C)CC(=O)[C@@]2(O)[C@@]3(C)[C@@H](O)CCC(C)(C)[C@@H]3[C@H](OC(=O)CCN(C)C)[C@H](OC(C)=O)[C@@]2(C)O1,inconclusive: 59.8%,–
Cc1cc(C)c2c(CN3CCN(C)CC3)cc(=O)oc2c1,inconclusive: 38%,–
O=C(NC1CCCCC1)C(c1ccccc1)N1CCOCC1 (stereo not drawn),inconclusive: 47.2%,–
O=c1c(-c2cccs2)nc2cnc(N3CCNCC3)nc2n1CCc1ccccc1,–,"inconclusive: 25.1 µM [activator, single point]"
Cc1ncsc1C(=O)Nc1nc2c(s1)CCCC2,inactive: -3.73%,–
COc1ccc(CCNc2oc(COc3ccccc3Cl)nc2C#N)cc1OC,–,"inconclusive: 39.8 µM [inhibitor, single point]"
CC(C)CN(C(=O)c1ccc(=O)n(C)n1)c1nc2ccccc2s1,inconclusive: 41.6%,–
Cc1oc(C(=O)O)cc1COc1cccc2cccnc12,–,"inconclusive: 31.6 µM [inhibitor, single point]"
CC(C)C(c1nnnn1Cc1ccco1)N1CCN(C2CCCC2)CC1 (stereo not drawn),inconclusive: 52.3%,–
CN=c1scc(C)n1/N=C/c1ccc(O)cc1,inactive: -16.2%,–
O=C(Nc1cccnc1)c1cnn2c(C(F)F)cc(C3CC3)nc12,inactive: 2.05%,–
Cc1cc(C)c2c(CN3CCN(Cc4ccc5c(c4)OCO5)CC3)cc(=O)oc2c1,inactive: -4.48%,–
Cc1ccc(S(=O)(=O)N(Cc2ccccc2)Cc2ccco2)cc1,–,"inconclusive: 31.6 µM [activator, single point]"
CN1CCc2c(sc3c2C(=O)NC(c2ccccn2)N3)C1 (stereo not drawn),–,active: 15.8 µM
O=C(Cn1ncc2c(=O)oc3ccccc3c21)N1CCCN(Cc2ccccc2F)C1,inconclusive: 42.9% [at 2.3 µM],–
Cc1ccc(Cn2nnc3c(=O)[nH]c(C4CCN(S(=O)(=O)c5ccccc5)CC4)nc32)cc1,inconclusive: 50.9%,–
Nc1ncnc2c1nc(Br)n2[C@H]1O[C@H]2COP(=O)(O)O[C@H]2[C@@H]1O,inactive: -0.702%,–
O=C(Oc1c(CN2CCOCC2)cc(Cl)c2cccnc12)c1ccc(F)cc1,–,active: 12.6 µM
CCOC(=O)c1cc(C#N)c(SCc2ccc(C#N)cc2)nc1C,inactive: 2.8%,–

# A section of the results above, for reference:
SMILES,"activity change, negative = inhibition",Potency
Cc1cc(Oc2ccccc2)nc(OCC#N)n1,inconclusive: 33.2%,–
C=C[C@@]1(C)CC(=O)[C@@]2(O)[C@@]3(C)[C@@H](O)CCC(C)(C)[C@@H]3[C@H](OC(=O)CCN(C)C)[C@H](OC(C)=O)[C@@]2(C)O1,inconclusive: 59.8%,–
Cc1cc(C)c2c(CN3CCN(C)CC3)cc(=O)oc2c1,inconclusive: 38%,–
O=C(NC1CCCCC1)C(c1ccccc1)N1CCOCC1 (stereo not drawn),inconclusive: 47.2%,–

# Later entries:

SMILES,"activity change, negative = inhibition",Potency
O=C(Cn1nc(C(F)(F)F)c2c1CCCC2)NC1CCCC1,inconclusive: 54.6%,–
Cc1nc2ccc(NC(=O)C3CCN(S(=O)(=O)c4cccs4)CC3)cc2s1,inconclusive: 46.9%,–
COc1ccccc1N1CCN(C/C=C/c2ccc(N(C)C)cc2)CC1,–,"inconclusive: 15.8 µM [inhibitor, single point]"
CCC/C=C(\CCC)C(NS(=O)(=O)c1ccccc1)c1ccc(C(F)(F)F)cc1 (stereo not drawn),–,"inconclusive: 25.1 µM [activator, single point]"
O=C(CCNS(=O)(=O)c1ccc(Cl)cc1)NCc1ccccn1,–,"inconclusive: 25.1 µM [inhibitor, partial curve]"
FC(F)Oc1ccc(-c2csc(Cc3nnc4n3CCCCC4)n2)cc1,inconclusive: 44%,–
CCOc1ccccc1NC(=O)C1CCCN(S(=O)(=O)c2cccc3nsnc23)C1 (stereo not drawn),inconclusive: 35.5%,–
CCOC(=O)C1(Cc2ccccc2)NC(c2ccccc2F)C2C(=O)N(CC)C(=O)C21 (stereo not drawn),inconclusive: 82.2%,–
O=c1cc(Nc2ccc3c(c2)OCO3)[nH]c(=O)n1-c1ccc(Br)cc1,inactive: -18.4%,–
c1ccc2c(c1)nnn2-c1ncnc2sc3c(c12)CCCC3,inactive: 27.1%,–
O=c1c(-c2ccccc2)nc2cnc(N3CCOCC3)nc2n1-c1ccccc1,–,inconclusive: 7.94 µM [activator]
O=C1C(C2=C(O)c3ccccc3C2=O)=Nc2ccccc21,inconclusive: -40.2%,–
CCOc1cc(C#N)c(NC(=O)CSc2nnnn2-c2ccc(OC)cc2)cc1OCC,inconclusive: 56.4%,–
CC(C)Oc1cc(O)c2c(c1)OCC=C2CCC(=O)O,inactive: -2.7% [at 11 µM],–
Cn1c(COc2ccc(Cl)cc2)nnc1SCC(=O)NC1CCCCC1,inconclusive: 45%,–
Cc1cc(/C=C\c2ccc3cc(N(C)C)ccc3[n+]2C)c(C)n1-c1ccccc1,–,"inconclusive: 15.8 µM [inhibitor, single point]"
COc1ccccc1OCC(O)Cn1nc(C)cc1C (stereo not drawn),inconclusive: 36.1%,–
CCn1c(=O)c(-c2ccccc2)c(O)c2ccccc21,inconclusive: 46.5%,–
N=c1c2c(-c3ccccc3)c(-c3ccccc3)n(Cc3ccco3)c2ncn1Cc1ccco1,–,"inconclusive: 25.1 µM [inhibitor, partial curve]"
COc1cccc2sc(Nc3nnc(-c4cccs4)o3)nc12,inactive: 5.33%,–
CCCC[C@@H]1C[C@H]1C(NC(=O)c1cccnc1)c1ccc(-c2ccccc2)cc1 (stereo partly drawn),inactive: -6.71%,–
O=C(c1cccc(F)c1)N1CCC2(CC1)CN(c1cccc(-c3ccccc3)c1)C2,–,"inconclusive: 20 µM [inhibitor, partial curve]"
COc1cc(C2c3c(-c4cc(Cl)c(C)cc4O)n[nH]c3C(=O)N2Cc2cccnc2)ccc1O (stereo not drawn),inconclusive: 21.6%,–
O=C(CCN1C(=O)COc2ccccc21)NCCN1CCN(c2cccc(Cl)c2)CC1,inconclusive: 24.5%,–
COc1ccccc1NC(=O)Nc1nc(-c2cccnc2)nc2ccccc12,inactive: -5.7%,–
O=C(c1ncn[nH]1)N1CCN(c2nc(-c3ccccc3)cs2)CC1,–,"inconclusive: 25.1 µM [inhibitor, single point]"
